# According to the supplement of paper PMC4604168 (melanoma cell lines):
# The other results are listed elsewhere or left out. Many values rest on one well or one pass, so single values are uncertain.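 Cells were imaged in 1,536-well plates, and nuclei stained with an antibody against cleaved PARP were counted against all DNA-stained nuclei to give the apoptosis fraction. Screening doses were chosen to leave most cells alive, and resting and induced cleaved-PARP levels differ strongly between cell lines.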
# System: LB2518-MEL
# Assay: cleaved PARP positive nuclei fraction relative to DMSO control; melanoma cells; higher = more apoptosis
# Details: library dose: low library concentration; 72 h
row,Structure (SMILES),cleaved PARP positive nuclei fraction [%]
1,"Cn1cncc1[C@@](N)(c1ccc(Cl)cc1)c1ccc2c(c1)c(-c1cccc(Cl)c1)cc(=O)n2C [tipifarnib] + c1cc(-c2cnn3cc(-c4ccc(OCCN5CCCCC5)cc4)cnc23)ccn1 [Dorsomorphin] (first compound 0.01 µM, partner dose 0.4 µM)",97.1
2,"Cc1cc(N2CCOCC2)cc2[nH]c(-c3c(NC[C@@H](O)c4cccc(Cl)c4)cc[nH]c3=O)nc12 + Cn1cc(/C=C2\C(=O)Nc3cccnc32)c2ccccc21 [GW441756] (first compound 0.2 µM, partner dose 0.4 µM)",109
3,"Cn1c(Nc2ccc(C(F)(F)F)cc2)nc2cc(Oc3ccnc(-c4ncc(C(F)(F)F)[nH]4)c3)ccc21 + Oc1nc(-c2ccc(C(F)(F)F)cc2)nc2c1CSCC2 [XAV939] (first compound 0.08 µM, partner dose 2 µM)",537
4,"Cn1nnc2c(C(N)=O)ncn2c1=O [temozolomide] + CC(C)CCN1c2nc(Nc3cc(F)c(O)c(F)c3)ncc2N(C)C(=O)C1C [BID1870] (first compound 2 µM, partner dose 0.2 µM)",80.5
5,"C[C@]1(c2nc3c(C(N)=O)cccc3[nH]2)CCCN1 [Veliparib] + O=C(O)C(=O)Nc1sc2c(c1C(=O)O)CCNC2 [TCS401] (first compound 1.4 µM, partner dose 1.66667 µM)",86.7
6,"O=C(Nc1cccc(Cl)c1)Nc1ncc(CCNc2ncnc3ccsc23)s1 + COc1cc2ncnc(Nc3ccc(Oc4ccccc4)cc3)c2cc1OC [SrcI1] (first compound 0.0008 µM, partner dose 2 µM)",86.4
7,"NC(=O)Nc1cc(-c2cccc(F)c2)sc1C(=O)N[C@H]1CCCNC1 + O=c1cc(-c2cccc3c2Sc2ccccc2S3)oc(N2CCOCC2)c1 [KU55933] (first compound 0.02 µM, partner dose 1 µM)",64.9
8,"CC(C)(C)c1cnc(CSc2cnc(NC(=O)C3CCNCC3)s2)o1 + N#Cc1c(O)c2c(-c3ccc(-c4ccccc4O)cc3)csc2[nH]c1=O [A769662] (first compound 0.01 µM, partner dose 2 µM)",194
